Among the data in PubChem BioAssay AID2685 (National Center for Advancing Translational Sciences (NCATS), 2010) are cell number change and AC50 values, retold here.

A short description of the assay: qHTS Assay for Lipid Storage Modulators in Drosophila S3 Cells.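 For cell number change: cells counted by Cell Tracker Red CMTPX staining in the red channel.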 Particulars: BODIPY lipid droplet fluorescence, 18-24 h; for cell number change: measured here: cell count max response, cells fed with added oleic acid. The gist of the method:
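Drosophila S3 cells got compounds at several concentrations plus oleic acid (400 uM solution). Laser-scanning cytometry with 488 nm excitation read lipid droplets at 500-530 nm and cells at 575-640 nm. Percent activity was relative to 20 uM Triacsin C.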
For orientation: qHTS replaces the single test concentration by a dilution series.

The mark [1] stands for this setting: measured here: cell number channel AC50, cells fed with added oleic acid.
Setting [2] is: measured here: lipid fluorescence (Fed channel) AC50, cells fed with added oleic acid.

The list shows a part of the results. Shown are side measurements of this screen, not its main read-out; they come without a call. Compounds called inactive in the main read-out are mostly missing here. Words in brackets tell the shape of the fitted curve; partial curves, single points and poor fits give uncertain potencies.

On to `Cc1ccc(CN2C(=O)C(C)Oc3ccccc32)cc1` (configuration not stated), for which the cell number change came to 4.03%. For `COc1ccc(O)c(C2(O)C(=O)c3ccccc3C2=O)c1`, the cell number change was -22%. Also, the AC50 – broadly, the midpoint of the concentration-response curve, whichever way the signal moves – under setting [1] was 0.184 µM [falling, full curve, poor fit]. Besides, under setting [2], the AC50 was 0.164 µM [falling, full curve, poor fit]. As for `O=C(c1ccco1)N1CCN(S(=O)(=O)c2ccccc2[N+](=O)[O-])CC1`, the cell number change stood at 33.9%. Also, the half-maximal activity concentration (AC50) under setting [2] was 0.146 µM [rising, single point]. Take `Cn1cccc1CC(=O)N/N=C/c1ccc(C(C)(C)C)cc1`: the cell number change is -11.2%. Under setting [2], the AC50 is 29.1 µM [falling, single point]. Take `COc1cccc(C(=O)NCCS(=O)(=O)NCc2ccc3c(c2)OCO3)c1`: the cell number change came out at 23.2%. In addition, the AC50 under setting [2] was 20.6 µM [rising, partial curve]. Turning to `O=c1oc2cc(O[C@@H]3OC[C@@H](O)[C@H](O)[C@H]3O)ccc2c2ccccc12`, the cell number change stood at 13%. The AC50 under setting [2] was 0.103 µM [rising, full curve, poor fit]. As for `O=C(CSc1nccn1Cc1ccc(F)cc1)Nc1ccc(F)cc1F`, the cell number change came out at 38.8%. In addition, the AC50 under setting [1] was 23.1 µM [rising, single point]. On to `Cc1noc(C)c1C(=O)OCC(=O)Nc1ccccc1SCC#N`, for which the cell number change is -0.903%. In addition, under setting [1], the AC50 was 3.26 µM [rising, partial curve]. Consider `O=C(CCCN1C(=O)C(c2ccccc2)Oc2cccnc21)NCc1ccccc1Cl` (configuration not stated), for which the cell number change is -40.7%. Further, the AC50 under setting [1] is 29.1 µM [falling, single point]. For the same molecule, under setting [2], the AC50 was 2.06 µM [falling, partial curve]. For `N#Cc1ccc(NC(=O)c2sc3cc(C(F)(F)F)cnc3c2-c2cccs2)cc1`, the cell number change was 7.14%. Besides, under setting [2], the AC50 is 29.1 µM [rising, single point].

In the case of `Cc1ccc(C(=O)N2CCN(S(=O)(=O)c3ccc(C(C)C)cc3)CC2)s1`, the cell number change amounted to 186%. Besides, the AC50 under setting [1] is 18.4 µM [rising, single point]. On to `O=C(N/N=C/c1ccccc1)c1n[nH]c2c1CCCC2`, for which the cell number change came to 42.7%. Moreover, the AC50 under setting [1] is 1.84 µM [rising, full curve, poor fit]. For the same molecule, the AC50 under setting [2] was 3.66 µM [rising, full curve]. For the molecule `COc1ccc(C2C(C(=O)Nc3cccnc3)=C(C)Nc3nc(-c4cccs4)nn32)cc1OC` (configuration not stated), the cell number change stood at 36.9%. Under setting [1], the AC50 is 8.2 µM [rising, partial curve, poor fit]. For the molecule `O=S1(=O)N=C(SCCO)c2ccccc21`, the cell number change is 2.67%. The AC50 under setting [2] was 0.00517 µM [falling, full curve, poor fit]. In the case of `CCOC(=O)N/N=C\c1ccc([N+](=O)[O-])o1`, the cell number change was -21.3%. Also, the AC50 under setting [2] is 13 µM [falling, partial curve, poor fit]. Take `CCCOc1ccc(N2C(=O)C3C(C(C)C)NC4(C(=O)c5ccccc5C4=O)C3C2=O)cc1` (configuration not stated): the cell number change stood at 69.6%. Regarding `CCCC(C)NC(=O)COC(=O)c1ccc2c(c1)C(=O)N(Cc1ccco1)C2=O` (configuration not stated), the cell number change amounted to 2.56%. For the same molecule, under setting [2], the AC50 is 7.31 µM [falling, partial curve, poor fit]. Turning to `CC1Cc2nc(SCC(=O)NCc3ccco3)n(-c3ccccc3)c(=O)c2S1` (configuration not stated), the cell number change stood at 2.03%. As to `O=C(O)c1ccc(NC(=S)NC2CCCCC2)cc1`, the cell number change was determined as 17%. Also, under setting [2], the AC50 is 2.31 µM [rising, single point].

Take `CCOc1ccc2[nH]c(=O)c(CN(Cc3cccnc3)C(=O)Nc3ccccc3OC)cc2c1`: the cell number change was 13.7%. The AC50 under setting [2] is 0.411 µM [rising, full curve]. With `Cc1cc(C(=O)N2CCCc3ccccc32)no1`, the cell number change is -9.96%. Also, under setting [1], the AC50 is 0.731 µM [falling, full curve]. For the same molecule, the AC50 under setting [2] is 6.51 µM [falling, single point]. For `CC(C)C[C@H]1CN=C(Nc2ccccc2)N1CCC1CCCC1`, the cell number change was determined as 14.7%. Moreover, the AC50 under setting [1] is 0.082 µM [rising, full curve, poor fit]. Moreover, the AC50 under setting [2] was 6.51 µM [rising, partial curve, poor fit].

In the case of `CN(Cc1ccccc1)c1nc2c(c(=O)[nH]c(=O)n2C)n1Cc1ccccc1F`, the cell number change was -29.4%. Besides, under setting [2], the AC50 was 6.51 µM [rising, single point]. Turning to `CN1C(=O)S/C(=C/c2cccn2-c2cccc(C(=O)O)c2)C1=O`, the cell number change worked out at 40.3%. For the molecule `Nc1nc(O)c(Sc2ccccc2[N+](=O)[O-])c(=O)[nH]1`, the cell number change turned out to be 36.2%. Besides, the AC50 under setting [1] is 5.8 µM [rising, full curve, poor fit]. With `N=c1c(S(=O)(=O)c2ccc(Cl)cc2)cc2c(=O)n3ccccc3nc2n1CC1CCCO1` (configuration not stated), the cell number change is -9.2%. Besides, under setting [1], the AC50 is 6.51 µM [falling, partial curve]. Take `Cc1ccc(C(=O)N/C(=C/c2ccc(-c3ccc(Br)cc3)o2)C(=O)NC2CCS(=O)(=O)C2)cc1` (configuration not stated): the cell number change was -33.5%. Also, the AC50 under setting [1] was 5.17 µM [falling, single point].

As for `NC(=O)c1ccccc1OCC(=O)N1CCc2ccccc2C1`, the cell number change is -21%. Turning to `CC(C)NC(=O)c1onc(CSc2ccc(F)cc2)c1C(=O)NC(C)C`, the cell number change was determined as 23.6%. The AC50 under setting [2] was 25.9 µM [rising, partial curve]. In the case of `C=C(C)CSc1nc2ccccc2c(=O)n1-c1c(C)n(C)n(-c2ccccc2)c1=O`, the cell number change amounted to 33.2%. Moreover, the AC50 under setting [1] was 16.4 µM [rising, single point].

In the case of `O=C(O)C1=CC[C@@H](c2ccc(Cl)cc2)N(S(=O)(=O)c2ccc(Cl)cc2)[C@H]1c1ccc(F)cc1`, the cell number change is -37.5%. On to `COc1ccc(CCNC(=O)c2oc3ccccc3c2C)cc1`, for which the cell number change was -16.3%. Same read-out and setting: the figure for `Nc1cc(N)nc(SCC(=O)NCc2ccco2)n1` is -21%. As for `Cc1ccc2oc(C(=O)NCC(c3ccco3)N(C)C)c(C)c2c1` (configuration not stated), the cell number change stood at 12.8%. In addition, under setting [2], the AC50 is 6.51 µM [falling, single point]. For `Cc1ccc(C(=O)NCC(=O)NCCc2ccc(S(N)(=O)=O)cc2)s1`, the cell number change is -21.7%. Besides, under setting [2], the AC50 is 29.1 µM [falling, single point]. Regarding `CC1(C)CN(c2ccc(F)cc2)C1=O`, the cell number change is -34.9%. Moreover, the AC50 under setting [1] is 2.31 µM [falling, full curve, poor fit].

Take `CCOC(=O)C1CCN(C2=C(NS(=O)(=O)c3ccc(Cl)cc3)C(=O)c3ccccc3C2=O)CC1`: the cell number change was -60.8%. The AC50 under setting [1] is 16.4 µM [falling, partial curve, poor fit]. Besides, the AC50 under setting [2] was 8.2 µM [falling, partial curve].

Regarding `O=C(c1c[nH]c(C(=O)C(Cl)(Cl)Cl)c1)c1ccc(F)cc1F`, the cell number change is -65.2%. Further, under setting [1], the concentration at half-maximal activity (AC50) is 23.1 µM [falling, partial curve, poor fit]. Also, under setting [2], the AC50 is 7.31 µM [falling, partial curve]. As for `CNC(=O)[C@H]1O[C@@H](n2cnc3c(NCc4cccc(I)c4)nc(Cl)nc32)[C@H](O)[C@@H]1O`, the cell number change was -28.7%. Besides, the AC50 under setting [2] is 6.51 µM [rising, single point].

`CCOC(=O)c1[nH]c(CSc2nnnn2-c2ccccc2C)c(C(=O)OCC)c1C`: the cell number change is -10.6%. Besides, the AC50 under setting [2] was 1.64 µM [rising, full curve].

On to `CCC(C)(C)NC(=O)CN(C(=O)CNS(=O)(=O)c1ccccc1)c1ccccc1`, for which the cell number change was 8.62%. For the same molecule, under setting [2], the AC50 was 4.61 µM [falling, single point].

For `Cc1csc(Cn2c(CN(C)C)nc3ccccc3c2=O)n1`, the cell number change was found to be 0.992%. For the same molecule, under setting [2], the AC50 was 6.51 µM [rising, single point]. Consider `CCNC(=O)CC1C(=O)N(c2ccc(F)cc2)C(=S)N1CCc1ccncc1` (configuration not stated), for which the cell number change is 28%. With `CC1(C)CC(=O)c2c(oc3ccc(NS(=O)(=O)c4cccc5cccnc45)cc23)C1`, the cell number change is -34.7%. In addition, the AC50 under setting [2] is 29.1 µM [falling, single point].

On to `Cc1nc(Nc2ccc(C(=O)O)cc2)nc(Nc2ccc(C(=O)O)cc2)c1[N+](=O)[O-]`, for which the cell number change was -12.7%. The AC50 under setting [2] is 4.61 µM [falling, full curve, poor fit]. Consider `O=C(CCCN1C(=O)c2ccccc2C1=O)NC1CCCCCC1`, for which the cell number change amounted to 43.7%. The AC50 under setting [1] was 8.2 µM [rising, partial curve, poor fit]. Consider `CC(=O)c1cccc(NC(=O)c2cc3nc(C)cc(C)n3n2)c1`, for which the cell number change was -3.05%. Take `Cn1c(=O)oc2cc(NC(=O)CCl)ccc21`: the cell number change was -8.36%. Further, the AC50 under setting [2] is 6.51 µM [falling, single point]. For the molecule `CC(OC(=O)Cc1c[nH]c2ccccc12)C(=O)NC1CCCCC1C` (configuration not stated), the cell number change is -2.51%. Under setting [2], the AC50 is 0.517 µM [falling, partial curve, poor fit].

In the case of `O=C(Nc1ccc2nc3n(c(=O)c2c1)CCCC3)c1cc([N+](=O)[O-])ccc1F`, the cell number change is -53.7%. For the same molecule, under setting [1], the AC50 was 20.6 µM [falling, partial curve]. Besides, the AC50 under setting [2] was 8.2 µM [falling, partial curve].

As to `O=C(/C=C/c1ccco1)OCn1nnc2ccccc2c1=O`, under setting [1], the AC50 was 0.0058 µM [falling, full curve, poor fit].

`O=C(CSCc1ccc(Cl)cc1)Nc1cc([N+](=O)[O-])ccc1O`: the cell number change is -64.7%. The AC50 under setting [1] is 16.4 µM [falling, partial curve]. The half-maximal activity concentration (AC50) under setting [2] is 29.1 µM [falling, single point]. Regarding `O=C(NCCC1CCCCN1S(=O)(=O)c1ccccc1)C(=O)NCc1ccccn1` (configuration not stated), the cell number change was determined as 1.43%. Also, under setting [2], the AC50 was 0.103 µM [rising, full curve, poor fit]. Turning to `C/C(=N\NC(=S)NC1CCCCC1)c1cccs1`, the cell number change was determined as 17.3%. In addition, under setting [2], the AC50 was 0.1 µM [rising, full curve, poor fit].

For `CC1CCN(C(=O)C(Cc2ccccc2)NS(=O)(=O)c2ccc3c(c2)oc(=O)n3C)CC1` (configuration not stated), under setting [2], the AC50 is 0.103 µM [rising, full curve, poor fit].

Consider `CC1(C)Cc2c(ccc3ccccc23)C(c2cc3ccccc3oc2=O)=N1`, for which the cell number change amounted to 12.9%. Under setting [1], the AC50 is 0.92 µM [rising, full curve, poor fit]. Moreover, the AC50 under setting [2] is 1.84 µM [rising, full curve, poor fit].

Take `CC1(c2ccccc2)CC(c2ccccc2)=Nc2nonc2N1` (configuration not stated): the cell number change was -1.04%. The concentration at half-maximal activity (AC50) under setting [2] is 0.731 µM [rising, full curve, poor fit]. On to `Cc1ccc(N/N=C/c2ccncc2)cc1`, for which the cell number change worked out at 4.5%. Further, under setting [2], the AC50 was 7.31 µM [rising, partial curve]. On to `CC(C)c1ccc2[nH]c(O)c(N=NC(=S)NCCc3ccccc3)c2c1`, for which the cell number change is -41.1%. For the same molecule, the AC50 under setting [1] is 18.4 µM [falling, single point]. Further, the half-maximal activity concentration (AC50) under setting [2] is 20.6 µM [falling, single point].
